These are yes or no findings as the source states them, for the method shown. Where a sequence is shown, tags or fusion partners need not be part of it.

Protein sequences, listed by entry. Tags and fused reporters are not part of them.
UniProt Q0INY7: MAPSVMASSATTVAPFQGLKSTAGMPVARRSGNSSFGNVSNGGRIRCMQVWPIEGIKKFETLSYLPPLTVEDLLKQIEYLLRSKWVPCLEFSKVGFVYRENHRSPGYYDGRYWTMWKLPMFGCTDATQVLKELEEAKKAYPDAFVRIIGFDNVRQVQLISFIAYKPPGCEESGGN

Experimental findings from paper doi:10.1101/2025.11.22.689956 are described below.

The target in the assay is precursor RbcS (RbcS3), yeast two-hybrid fusion (rice) (UniProt Q0INY7). As to the kind of experiment: two-hybrid.

B1: MPK3 fused to the GAL4 activation domain (enzyme, UniProt Q10N20 1-369)
chain: MDGAPVAEFRPTMTHGGRYLLYDIFGNKFEVTNKYQPPIMPIGRGAYGIVCSVMNFETREMVAIKKIANAFNNDMDAKRTLREIKLLRHLDHENIIGIRDVIPPPIPQAFNDVYIATELMDTDLHHIIRSNQELSEEHCQYFLYQILRGLKYIHSANVIHRDLKPSNLLLNANCDLKICDFGLARPSSESDMMTEYVVTRWYRAPELLLNSTDYSAAIDVWSVGCIFMELINRQPLFPGRDHMHQMRLITEVIGTPTDDELGFIRNEDARKYMRHLPQYPRRTFASMFPRVQPAALDLIERMLTFNPLQRITVEEALDHPYLERLHDIADEPICLEPFSFDFEQKALNEDQMKQLIFNEAIEMNPNIRY
B1: the binding result is on record as “no binding”.
